From patent publication US20200299706A1 (COLD SPRING HARBOR LABORATORY, published 2020)
No constants are given. Whether binding was seen depends on the method and setting. Some entries that bind do so weakly or less than the wild type.

Legend:
Details in all cases: remark: other sources report otherwise
[1] = molecular target: T1, EJ2 (Enhancer-of-Jointless-2, Solyc03g114840) SEP4-homolog MADS-box protein (tomato (Solanum lycopersicum)), Q7Y040; test: yeast two-hybrid, FIG. 10B
T1 chain: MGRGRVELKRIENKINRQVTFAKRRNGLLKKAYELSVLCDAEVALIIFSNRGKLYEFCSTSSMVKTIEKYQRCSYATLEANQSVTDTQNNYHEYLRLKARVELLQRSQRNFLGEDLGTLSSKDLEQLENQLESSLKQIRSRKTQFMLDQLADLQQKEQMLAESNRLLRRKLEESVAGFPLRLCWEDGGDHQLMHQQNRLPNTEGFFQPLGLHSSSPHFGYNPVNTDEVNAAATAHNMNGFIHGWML

[2] = molecular target: T1, EJ2 (Enhancer-of-Jointless-2, …); test: yeast two-hybrid, FIG. 5C
[3] = molecular target: T1, EJ2 (Enhancer-of-Jointless-2, …); test: yeast two-hybrid (Matchmaker Gold; growth on -L-T-H medium)

Measured: binding

B1: J2 (Jointless-2, Solyc12g038510) SEP4-homolog MADS-box protein (other)
chain: MGRGRVELKRIENKINRQVTFAKRRNGLLKKAYELSILCDAEVALIIFSSRGKLYEFSSASSMMTTLEKYQQCSYASLDPMLPVSDTQMNYNEYVRLKARVELLQRSQRHILGEDLGTLNSKELEQLEHQLDASLKKVRSKKTQSMLDQLADLQEKEQMLEEANKQLKNKLEESAARIPLGLSWGNNGGQTMEYNRLPPQTTAQPFFQPLRLNSSSPQFGYNPNMGANDHEVNAATTAHNINGFIPGWML
binds: [1] | [2] | [3]
